# From paper PMC7819943, “Rice protein-binding microarrays: a tool to detect cis-acting elements near promoter regions in rice”
# The list shows a part of the results.
# Molecular target: T1, OsSMF1 (Oryza sativa, UniProt Q6ZLB0 1-436)
# T1 sequence: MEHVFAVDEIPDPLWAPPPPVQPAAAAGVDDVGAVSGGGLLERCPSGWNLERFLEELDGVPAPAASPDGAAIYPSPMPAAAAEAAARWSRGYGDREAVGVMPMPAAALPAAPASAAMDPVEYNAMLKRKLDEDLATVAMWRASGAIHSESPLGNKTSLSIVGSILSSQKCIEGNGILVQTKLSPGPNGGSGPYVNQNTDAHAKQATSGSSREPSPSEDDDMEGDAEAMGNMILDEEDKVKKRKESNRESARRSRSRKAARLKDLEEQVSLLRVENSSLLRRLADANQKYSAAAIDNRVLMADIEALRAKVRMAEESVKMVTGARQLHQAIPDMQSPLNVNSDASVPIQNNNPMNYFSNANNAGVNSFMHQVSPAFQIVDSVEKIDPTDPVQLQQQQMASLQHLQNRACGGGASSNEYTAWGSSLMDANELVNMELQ
# Assay: protein-binding microarray (RPBM); PBS, 2% BSA, 51.3 ng/ul salmon testes DNA, 50 uM zinc acetate, 200 nM TF, 25 C, 1 h; high values mean tight binding
# Settings: protein: recombinant; tags: N-terminal polyhistidine and DsRed monomer fusion (pET32a); chain copies: 2; label: CyDye5-dUTP incorporated in the synthesized complementary strand; 3' TTTTT single-stranded linker to array surface; dsDNA, one strand shown
# Outline: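 For the binding signal, per-feature fluorescence intensity was read in arbitrary units on an Axon 4000B scanner. Before scanning, a 2% BSA-blocked custom Agilent array made double-stranded with Cy5-dUTP was washed after 1 h at 25 °C with 200 nM protein and 50 µM zinc acetate. The proteins were Ni–NTA-purified transcription factors with N-terminal polyhistidine and DsRed fusions, expressed in E. coli BL21-CodonPlus.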
row,Sequence,binding signal
1,GATCCCGGGCCCGGCCCACTGGCCCAGTCAACTAATCCTCCGGAGTCACCTAGTGCAG,53100 fluorescence intensity (a.u.)
2,ACCATATGACCGAGTATTAGTTATTCATCCCTCTCATAATCGGAGTCACCTAGTGCAG,3440 fluorescence intensity (a.u.)
3,CCTCTACATTGGCAGTCCACGTCGGTGAGTGGATCGGGTCCGGAGTCACCTAGTGCAG,5560 fluorescence intensity (a.u.)
4,GGGTGTTCGGTAGTCAAGATGTCGTGGCACAGGTCACACCCGGAGTCACCTAGTGCAG,9520 fluorescence intensity (a.u.)
5,TCGTCATATCAGGAGCTGCATGCAATGTCGATTTGTTTCCCGGAGTCACCTAGTGCAG,3210 fluorescence intensity (a.u.)
6,ATGTCCATCATTCCCATATGGAGCTGCTCTAGGTTGGTGACGGAGTCACCTAGTGCAG,3540 fluorescence intensity (a.u.)
7,ACGGCCACCCCGAAAACACGCCACGCGAAACGACGAGCGCCGGAGTCACCTAGTGCAG,3310 fluorescence intensity (a.u.)
8,GACGATCAAGATCGACACGACCAACGTGGCATGTTGCGTACGGAGTCACCTAGTGCAG,9470 fluorescence intensity (a.u.)
9,CTGCATGCTGGCGCAAGCGTCACGGGTCTACCTTGAAAGTCGGAGTCACCTAGTGCAG,3320 fluorescence intensity (a.u.)
10,CTGGCTGCAACGGACGAAGACTTTGGTGAATGAGGCTTGACGGAGTCACCTAGTGCAG,17200 fluorescence intensity (a.u.)
11,GGACTTCCATTGTCGAGGAAATTACCACGTAAATTTGTTCCGGAGTCACCTAGTGCAG,3490 fluorescence intensity (a.u.)
12,CCTAATTATCTCTCTCTCCCTACCACGTCGTCTTCTCTTCCGGAGTCACCTAGTGCAG,5770 fluorescence intensity (a.u.)
13,GACATGTAGGACCCACGTGAGTCAATGACACGTGGGTCAGCGGAGTCACCTAGTGCAG,23800 fluorescence intensity (a.u.)
14,ATCGCCATTTCCATGTGTCAGAAATTAGTTCTGAGTTAAGCGGAGTCACCTAGTGCAG,3760 fluorescence intensity (a.u.)
15,GCTGCTGCCTATTGATGACACACCTCTACTGCAATGGCGGCGGAGTCACCTAGTGCAG,5340 fluorescence intensity (a.u.)
16,ATGGATTCCAACCACATGATCCATATGACGTCGTCGTCTTCGGAGTCACCTAGTGCAG,4860 fluorescence intensity (a.u.)
17,CCATATAGGAATTTAAAACTAACTAAAATTCGGAATAAACCGGAGTCACCTAGTGCAG,3400 fluorescence intensity (a.u.)
18,TAATCTAATCATGAAATGCAACTTTAGTTTATGTTTAACACGGAGTCACCTAGTGCAG,3160 fluorescence intensity (a.u.)
19,CTCGATGAGCCGATGCTTGGGGCTGCCCCTAATATTCACACGGAGTCACCTAGTGCAG,3260 fluorescence intensity (a.u.)
20,CATGTCTTTTGAAGACTCGTTGGGTGAGTAGTGGGGCTTACGGAGTCACCTAGTGCAG,3510 fluorescence intensity (a.u.)
21,CGAGTGGGACCCATAAGCTGACTCAGCTAGTCAGCAGAATCGGAGTCACCTAGTGCAG,16200 fluorescence intensity (a.u.)

# Individual results from above:
# In binding signal, CTGGCTGCAACGGACGAAGACTTTGGTGAATGAGGCTTGACGGAGTCACCTAGTGCAG reads 17200 fluorescence intensity (a.u.)
# In binding signal, GCTGCTGCCTATTGATGACACACCTCTACTGCAATGGCGGCGGAGTCACCTAGTGCAG reads 5340 fluorescence intensity (a.u.)

# The results go on.

row,Sequence,binding signal
1,TGATTAGTGATTAGTGCTAATCATAATTAGTGCCTACAAGCGGAGTCACCTAGTGCAG,26800 fluorescence intensity (a.u.)
2,CTCTTAACGGAGAAAAGAACGGGGCCGGCTTCAAGCCACGCGGAGTCACCTAGTGCAG,3370 fluorescence intensity (a.u.)
3,ATGGCAGTGGAGGCGTAGAACTGTAGAAGTGTATCTTATCCGGAGTCACCTAGTGCAG,3320 fluorescence intensity (a.u.)
4,GAGACGAGATCCCTTTCCTCTGTCACCTTTCTCCCCTCCGCGGAGTCACCTAGTGCAG,3430 fluorescence intensity (a.u.)
5,CCGGACCAAAATGACGTGCCTTAGGCCGGGCCGCCAGCCTCGGAGTCACCTAGTGCAG,3830 fluorescence intensity (a.u.)
6,AATAATTCGCAGCGTCATATCATGCAATATCTAATCGTCGCGGAGTCACCTAGTGCAG,3260 fluorescence intensity (a.u.)
7,ACTGCGTTGAGAACATTATTACCACAATGTGATGTGGCCTCGGAGTCACCTAGTGCAG,4630 fluorescence intensity (a.u.)
8,TGGGGCCGTGAGGCCACGTGCCCGGCATGCCACGGTGGAGCGGAGTCACCTAGTGCAG,10000 fluorescence intensity (a.u.)
9,ACACACACACACACCCACCACACCACCCCGGCCGCTTCCGCGGAGTCACCTAGTGCAG,3210 fluorescence intensity (a.u.)
10,AGTAATAGAGATGCACAGATGGAGCGAGTATGAGATAATGCGGAGTCACCTAGTGCAG,29600 fluorescence intensity (a.u.)
11,AGTTCTACTTGAGTTATGTAATGAATCACAATGCCTTCATCGGAGTCACCTAGTGCAG,53400 fluorescence intensity (a.u.)
12,ACGCATCAACAGTGGAGGGAGGGGAGGGGAGGAGCTTCCCCGGAGTCACCTAGTGCAG,3940 fluorescence intensity (a.u.)
13,CCTGTGCCAGCTTGGACTCTCTCATCTCACCCCTTTCTTTCGGAGTCACCTAGTGCAG,4360 fluorescence intensity (a.u.)
14,CTGTGTGAACAACAAATCAATGGCCACGTCATATATGTACCGGAGTCACCTAGTGCAG,16800 fluorescence intensity (a.u.)
15,AAAGGTAATCTACTATAGCCGCTACAAACATTTCTCCCTCCGGAGTCACCTAGTGCAG,11800 fluorescence intensity (a.u.)
16,TTGACTTTGCCTCTCTTGATGAGTGTACCATCATATTTTCCGGAGTCACCTAGTGCAG,3170 fluorescence intensity (a.u.)
17,TACCCTTGTGCCGGCCGAGACGGCACCACGCCTTTCTCGTCGGAGTCACCTAGTGCAG,5000 fluorescence intensity (a.u.)
18,TCCAGATGATGGAACATCTACACGCTACCCCACGTCGGCTCGGAGTCACCTAGTGCAG,5000 fluorescence intensity (a.u.)
19,CCGCTGCGCGAGATGCGATGCGACTGTGTCAACCCACGCGCGGAGTCACCTAGTGCAG,3500 fluorescence intensity (a.u.)
20,TTAGGGCCACGGATAAGATTTCGATACCTTTTGAGGGTCGCGGAGTCACCTAGTGCAG,3380 fluorescence intensity (a.u.)
21,ATCCCTTTCTGTCGAATGGTCTCTCATAACGCCTCCCCTACGGAGTCACCTAGTGCAG,3480 fluorescence intensity (a.u.)
